Experimental data taken from article PMC12681554.
No constants are given. Whether binding was seen depends on the method and setting. In cells and extracts the contact can be indirect. Some results given as binding are weak or reduced against the parent protein; the word gives no strength. Values belong to the molecule of their own block, whether it stands above or below them.

Sequences of proteins named here, by UniProt entry; tags and fusion partners are left off.
UniProt P09429: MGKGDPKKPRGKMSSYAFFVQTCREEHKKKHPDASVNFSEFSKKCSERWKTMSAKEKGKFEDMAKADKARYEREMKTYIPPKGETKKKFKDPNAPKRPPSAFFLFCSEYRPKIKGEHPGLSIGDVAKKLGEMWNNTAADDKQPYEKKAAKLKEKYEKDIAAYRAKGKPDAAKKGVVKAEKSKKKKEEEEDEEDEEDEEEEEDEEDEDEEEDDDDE
UniProt Q03113: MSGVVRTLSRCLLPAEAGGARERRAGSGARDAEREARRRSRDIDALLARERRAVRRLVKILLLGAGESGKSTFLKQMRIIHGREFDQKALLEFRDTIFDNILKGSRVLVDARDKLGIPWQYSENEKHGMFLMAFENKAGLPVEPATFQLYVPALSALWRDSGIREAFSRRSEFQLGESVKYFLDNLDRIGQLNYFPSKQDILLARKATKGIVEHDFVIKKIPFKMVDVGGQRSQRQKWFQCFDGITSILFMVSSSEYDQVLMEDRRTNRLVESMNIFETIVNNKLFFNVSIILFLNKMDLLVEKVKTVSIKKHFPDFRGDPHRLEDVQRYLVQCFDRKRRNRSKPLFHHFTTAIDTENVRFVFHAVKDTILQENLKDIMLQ
UniProt P04792: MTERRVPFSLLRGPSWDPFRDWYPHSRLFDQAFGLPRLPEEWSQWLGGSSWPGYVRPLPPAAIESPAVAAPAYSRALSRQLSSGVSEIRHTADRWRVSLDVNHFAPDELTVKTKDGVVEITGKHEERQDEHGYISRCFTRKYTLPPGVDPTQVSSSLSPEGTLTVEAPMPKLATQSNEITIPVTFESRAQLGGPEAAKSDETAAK
UniProt P04150: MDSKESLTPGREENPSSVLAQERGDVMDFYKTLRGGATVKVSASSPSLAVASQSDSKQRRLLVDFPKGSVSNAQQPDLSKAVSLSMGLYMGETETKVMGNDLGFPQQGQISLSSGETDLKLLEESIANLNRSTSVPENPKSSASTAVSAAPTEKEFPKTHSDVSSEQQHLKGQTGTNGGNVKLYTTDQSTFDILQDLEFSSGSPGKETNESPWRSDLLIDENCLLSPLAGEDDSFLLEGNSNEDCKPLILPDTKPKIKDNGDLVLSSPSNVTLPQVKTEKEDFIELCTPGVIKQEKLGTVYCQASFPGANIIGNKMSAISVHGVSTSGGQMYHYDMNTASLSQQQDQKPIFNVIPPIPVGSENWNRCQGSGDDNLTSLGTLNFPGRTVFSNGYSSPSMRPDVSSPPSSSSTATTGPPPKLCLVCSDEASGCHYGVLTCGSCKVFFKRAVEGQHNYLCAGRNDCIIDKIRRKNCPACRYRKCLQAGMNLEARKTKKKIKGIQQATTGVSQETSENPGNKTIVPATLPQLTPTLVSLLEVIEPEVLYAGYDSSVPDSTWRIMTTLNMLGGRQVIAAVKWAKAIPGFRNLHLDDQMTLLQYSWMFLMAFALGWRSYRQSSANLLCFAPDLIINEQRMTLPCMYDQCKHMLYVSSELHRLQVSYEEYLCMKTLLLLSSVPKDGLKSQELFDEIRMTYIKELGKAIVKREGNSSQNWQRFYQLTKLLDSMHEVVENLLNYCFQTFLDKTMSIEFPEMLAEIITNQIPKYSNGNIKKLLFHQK
UniProt Q9BYG3: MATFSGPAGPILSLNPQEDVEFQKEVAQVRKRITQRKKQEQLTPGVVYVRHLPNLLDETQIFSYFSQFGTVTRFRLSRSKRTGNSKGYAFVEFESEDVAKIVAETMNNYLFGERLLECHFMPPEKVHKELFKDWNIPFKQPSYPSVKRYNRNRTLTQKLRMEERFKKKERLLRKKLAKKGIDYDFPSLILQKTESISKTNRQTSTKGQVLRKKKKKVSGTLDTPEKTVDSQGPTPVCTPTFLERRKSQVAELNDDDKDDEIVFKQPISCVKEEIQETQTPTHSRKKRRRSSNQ

Target: High mobility group box 1 (HMGB1), endogenous (human (endogenous in THP-1)) (UniProt P09429)
Test: proximity ligation; Naveniflex MR kit on fixed, permeabilised THP-1 cells, resting or LPS 100 ng/ml overnight; endogenous proteins; mouse anti-HMGB1 (2G7) with a rabbit antibody to the partner; single-antibody and irrelevant IgG controls; dots per cell

- binding: binds
Molecule: GNA12 (from UniProt Q03113 1-381)

- binding: binds
Molecule: HSPB1 (from UniProt P04792 1-205)

- binding: binds
Molecule: NR3C1 (glucocorticoid receptor) (from UniProt P04150 1-777)

- binding: binds
Molecule: NIFK (from UniProt Q9BYG3 1-293)

- binding: binds
B1: HCLS1 (protein, UniProt P14317 1-486)
chain: MWKSVVGHDVSVSVETQGDDWDTDPDFVNDISEKEQRWGAKTIEGSGRTEHINIHQLRNKVSEEHDVLRKKEMESGPKASHGYGGRFGVERDRMDKSAVGHEYVAEVEKHSSQTDAAKGFGGKYGVERDRADKSAVGFDYKGEVEKHTSQKDYSRGFGGRYGVEKDKWDKAALGYDYKGETEKHESQRDYAKGFGGQYGIQKDRVDKSAVGFNEMEAPTTAYKKTTPIEAASSGTRGLKAKFESMAEEKRKREEEEKAQQVARRQQERKAVTKRSPEAPQPVIAMEEPAVPAPLPKKISSEAWPPVGTPPSSESEPVRTSREHPVPLLPIRQTLPEDNEEPPALPPRTLEGLQVEEEPVYEAEPEPEPEPEPEPENDYEDVEEMDRHEQEDEPEGDYEEVLEPEDSSFSSALAGSSGCPAGAGAGAVALGISAVAVYDYQGEGSDELSFDPDDVITDIEMVDEGWWRGRCHGHFGLFPANYVKLLE

- binding: binds
B2: CAT (protein, UniProt P04040 1-527)
chain: MADSRDPASDQMQHWKEQRAAQKADVLTTGAGNPVGDKLNVITVGPRGPLLVQDVVFTDEMAHFDRERIPERVVHAKGAGAFGYFEVTHDITKYSKAKVFEHIGKKTPIAVRFSTVAGESGSADTVRDPRGFAVKFYTEDGNWDLVGNNTPIFFIRDPILFPSFIHSQKRNPQTHLKDPDMVWDFWSLRPESLHQVSFLFSDRGIPDGHRHMNGYGSHTFKLVNANGEAVYCKFHYKTDQGIKNLSVEDAARLSQEDPDYGIRDLFNAIATGKYPSWTFYIQVMTFNQAETFPFNPFDLTKVWPHKDYPLIPVGKLVLNRNPVNYFAEVEQIAFDPSNMPPGIEASPDKMLQGRLFAYPDTHRHRLGPNYLHIPVNCPYRARVANYQRDGPMCMQDNQGGAPNYYPNSFGAPEQQPSALEHSIQYSGEVRRFNTANDDNVTQVRAFYVNVLNEEQRKRLCENIAGHLKDAQIFIQKKAVKNFTEVHPDYGSHIQALLDKYNAEKPKNAIHTFVQSGSHLAAREKANL
